# In the supplement of paper PMC8728848:
# The other results are listed elsewhere or left out.
# Assays:
# Test in all cases: glycan array binding signal (z-score within array); higher = stronger binding
# Conditions in all cases: glycan notation: IUPAC condensed, linker removed
# [1] = biological target: Gal(b1-4)GlcNAc(b1-3)Gal(b1-4)GlcNAc(b1-3)Gal(b1-4)GlcNAc(b1-3)Gal(b1-4)GlcNAc(b1-2)Man(a1-3)[Gal(b1-4)GlcNAc(b1-3)Gal(b1-4)GlcNAc(b1-3)Gal(b1-4)GlcNAc(b1-3)Gal(b1-4)GlcNAc(b1-2)Man(a1-6)]Man(b1-4)GlcNAc(b1-4)[Fuc(a1-6)]GlcNAc
# How it was run: (§1)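 The binding signal is a Z-score computed within each array and averaged over linkers. Arrays of the same protein sequence at different concentrations or buffers were also averaged together. Data originate from 3228 arrays in the Consortium for Functional Glycomics database, kept only where the protein sequence was available.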
# [2] = biological target: Gal(b1-4)GlcNAc(b1-3)Gal(b1-4)GlcNAc(b1-3)Gal(b1-4)GlcNAc(b1-3)Gal(b1-4)GlcNAc(b1-2)[Gal(b1-4)GlcNAc(b1-3)Gal(b1-4)GlcNAc(b1-3)Gal(b1-4)GlcNAc(b1-3)Gal(b1-4)GlcNAc(b1-6)]Man(a1-6)[Gal(b1-4)GlcNAc(b1-3)Gal(b1-4)GlcNAc(b1-3)Gal(b1-4)GlcNAc(b1-3)Gal(b1-4)GlcNAc(b1-2)Man(a1-3)]Man(b1-4)GlcNAc(b1-4)[Fuc(a1-6)]GlcNAc
# How it was run: as §1
# [3] = biological target: Gal(b1-4)GlcNAc(b1-3)Gal(b1-4)GlcNAc(b1-3)Gal(b1-4)GlcNAc(b1-3)Gal(b1-4)GlcNAc(b1-3)Gal(b1-4)GlcNAc(b1-2)Man(a1-3)[Gal(b1-4)GlcNAc(b1-3)Gal(b1-4)GlcNAc(b1-3)Gal(b1-4)GlcNAc(b1-3)Gal(b1-4)GlcNAc(b1-3)Gal(b1-4)GlcNAc(b1-2)Man(a1-6)]Man(b1-4)GlcNAc(b1-4)GlcNAc
# How it was run: as §1
# [4] = biological target: Gal(b1-4)GlcNAc(b1-3)Gal(b1-4)GlcNAc(b1-3)Gal(b1-4)GlcNAc(b1-3)Gal(b1-4)GlcNAc(b1-3)Gal(b1-4)GlcNAc(b1-2)Man(a1-3)[Gal(b1-4)GlcNAc(b1-3)Gal(b1-4)GlcNAc(b1-3)Gal(b1-4)GlcNAc(b1-3)Gal(b1-4)GlcNAc(b1-3)Gal(b1-4)GlcNAc(b1-2)Man(a1-6)]Man(b1-4)GlcNAc(b1-4)[Fuc(a1-6)]GlcNAc
# How it was run: as §1
# [5] = biological target: Gal(b1-4)GlcNAc(b1-3)Gal(b1-4)GlcNAc(b1-3)Gal(b1-4)GlcNAc(b1-3)Gal(b1-4)GlcNAc(b1-3)Gal(b1-4)GlcNAc(b1-2)[Gal(b1-4)GlcNAc(b1-3)Gal(b1-4)GlcNAc(b1-3)Gal(b1-4)GlcNAc(b1-3)Gal(b1-4)GlcNAc(b1-3)Gal(b1-4)GlcNAc(b1-6)]Man(a1-6)[Gal(b1-4)GlcNAc(b1-3)Gal(b1-4)GlcNAc(b1-3)Gal(b1-4)GlcNAc(b1-3)Gal(b1-4)GlcNAc(b1-3)Gal(b1-4)GlcNAc(b1-2)Man(a1-3)]Man(b1-4)GlcNAc(b1-4)[Fuc(a1-6)]GlcNAc
# How it was run: as §1
# [6] = biological target: Gal(b1-4)GlcNAc(b1-3)Gal(b1-4)GlcNAc(b1-3)Gal(b1-4)GlcNAc(b1-3)Gal(b1-4)GlcNAc(b1-3)Gal(b1-4)GlcNAc(b1-3)Gal(b1-4)GlcNAc(b1-2)Man(a1-3)[Gal(b1-4)GlcNAc(b1-3)Gal(b1-4)GlcNAc(b1-3)Gal(b1-4)GlcNAc(b1-3)Gal(b1-4)GlcNAc(b1-3)Gal(b1-4)GlcNAc(b1-3)Gal(b1-4)GlcNAc(b1-2)Man(a1-6)]Man(b1-4)GlcNAc(b1-4)GlcNAc
# How it was run: as §1
# [7] = biological target: Gal(b1-4)GlcNAc(b1-3)Gal(b1-4)GlcNAc(b1-3)GalNAc
# How it was run: as §1
# [8] = biological target: Gal(b1-4)GlcNAc(b1-3)Gal(b1-4)GlcNAc(b1-3)[Gal(b1-4)GlcNAc(b1-3)Gal(b1-4)GlcNAc(b1-6)]GalNAc
# How it was run: as §1
# [9] = biological target: Gal(b1-4)GlcNAc(b1-3)Gal(b1-4)GlcNAc(b1-6)[Gal(b1-3)]GalNAc
# How it was run: as §1
# [10] = biological target: Gal(b1-4)GlcNAc(b1-3)Gal(b1-4)[Fuc(a1-3)]GlcNAc(b1-3)Gal(b1-4)[Fuc(a1-3)]GlcNAc
# How it was run: as §1
# [11] = biological target: Gal(b1-4)GlcNAc(b1-3)GalNAc
# How it was run: as §1
# [12] = biological target: Gal(b1-4)GlcNAc(b1-3)[Fuc(a1-3)GlcNAc(b1-6)]Gal(b1-4)Glc
# How it was run: as §1
# [13] = biological target: Gal(b1-4)GlcNAc(b1-3)[Gal(b1-4)GlcNAc(b1-6)]Gal(b1-4)GlcNAc
# How it was run: as §1
# [14] = biological target: Gal(b1-4)GlcNAc(b1-3)[GlcNAc(b1-6)]Gal(b1-4)GlcNAc
# How it was run: as §1
# [15] = biological target: Gal(b1-4)GlcNAc(b1-6)Gal(b1-4)GlcNAc
# How it was run: as §1
# [16] = biological target: Gal(b1-4)GlcNAc(b1-6)GalNAc
# How it was run: as §1
# [17] = biological target: Gal(b1-4)GlcNAc(b1-6)[Gal(b1-3)]GalNAc
# How it was run: as §1
# [18] = biological target: Gal(b1-4)GlcNAc(b1-6)[Gal(b1-4)GlcNAc(b1-3)]GalNAc
# How it was run: as §1
# Gal(b1-4)GlcNAc6P = biological target: Gal(b1-4)GlcNAc6P
# How it was run: as §1
# Gal(b1-6)Gal = biological target: Gal(b1-6)Gal
# How it was run: as §1
# Gal3S(b1-3)GalNAc = biological target: Gal3S(b1-3)GalNAc
# How it was run: as §1
# Gal3S(b1-3)GlcNAc = biological target: Gal3S(b1-3)GlcNAc
# How it was run: as §1
# [19] = biological target: Gal3S(b1-3)[Fuc(a1-4)]GlcNAc
# How it was run: as §1
binder,measurement,setting,value
Pwp7 (Candida glabrata) (protein) MGSSHHHHHHSSGLVPRGSHMASKNPVDFPNLCQYPNLDGAVAGFDTEIYNADPSILINFSLWPILQFPKEWHKTIGRAITTQTNFKLPASDTTLFGVSIPTQNILIEFRGYFIPPKSGTYTFALYLTDDGSAMFLGNDAAFPCGNITSWSNPTNDQVSVSDYDPKKKTLTVYMVAGVAYPLRIAYYNREKGGSLTASFVDPDGLTHSDWNGYIWTLPSCDNCKYS,glycan array binding signal (z-score),[1],1.19
same,glycan array binding signal (z-score),[2],0.261
same,glycan array binding signal (z-score),[3],1.68
same,glycan array binding signal (z-score),[4],2.19
same,glycan array binding signal (z-score),[5],0.783
same,glycan array binding signal (z-score),[6],1.86
same,glycan array binding signal (z-score),[7],1.71
same,glycan array binding signal (z-score),[8],2.23
same,glycan array binding signal (z-score),[9],1.95
same,glycan array binding signal (z-score),[10],0.953
same,glycan array binding signal (z-score),[11],-0.111
same,glycan array binding signal (z-score),[12],0.601
same,glycan array binding signal (z-score),[13],-0.2
same,glycan array binding signal (z-score),[14],0.165
same,glycan array binding signal (z-score),[15],-0.763
same,glycan array binding signal (z-score),[16],-0.893
same,glycan array binding signal (z-score),[17],-0.028
same,glycan array binding signal (z-score),[18],-0.209
same,glycan array binding signal (z-score),Gal(b1-4)GlcNAc6P,1.36
same,glycan array binding signal (z-score),Gal(b1-6)Gal,-0.152
same,glycan array binding signal (z-score),Gal3S(b1-3)GalNAc,-1.22
same,glycan array binding signal (z-score),Gal3S(b1-3)GlcNAc,-0.644
same,glycan array binding signal (z-score),[19],-0.807

# No new results follow: an excerpt of the list.
binder,measurement,setting,value
Pwp7 (Candida glabrata) (protein) MGSSHHHHHHSSGLVPRGSHMASKNPVDFPNLCQYPNLDGAVAGFDTEIYNADPSILINFSLWPILQFPKEWHKTIGRAITTQTNFKLPASDTTLFGVSIPTQNILIEFRGYFIPPKSGTYTFALYLTDDGSAMFLGNDAAFPCGNITSWSNPTNDQVSVSDYDPKKKTLTVYMVAGVAYPLRIAYYNREKGGSLTASFVDPDGLTHSDWNGYIWTLPSCDNCKYS,glycan array binding signal (z-score),[6],1.86
same,glycan array binding signal (z-score),[7],1.71
